## Results of single-concentration screens

Data taken from ChEMBL document CHEMBL3988442, “University of Dundee, Small-Polar-MMV Screening Library” (2021).

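Assay of Toxoplasma gondii numbers, read through their beta-galactosidase reporter with a colour substrate. Tested at 50 µM. Higher reads as fewer parasites (inferred from which compounds were picked for retests). About 18,000 compounds were tested under these conditions; 0.94% (about 170) showed 50% or more at least once.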

Values are the deposited “Percent Effect”, in %.
The record does not define 0% and 100%; most values in the screen are far below 50% and negative numbers occur (in some assays of this library far below -100).
This is an unselected part of the compounds tested.

| SMILES | effect |
|---|---|
| `CC(C)CC(=O)NCc1ccnc(N2CCCC2)c1` | -11.88 |
| `CSC(C)CNC(=O)[C@@H]1CCCN1` (stereo partly specified) | -5.936 |
| `CC(=O)N1CCCN(Cc2nc(C3CC3)no2)CC1` | 0.159 |
| `O=C1NC(=O)[C@@H]2CN(Cc3ccccc3)C[C@H]12` | -6.448 |
| `CCOc1ccccc1-n1c(CCN)n[nH]c1=O` | -3.447 |
| `CS(=O)(=O)Nc1cccc(C(=O)NCc2ccco2)c1` | 0.5061 |
| `Cc1nccn1CCNc1cc(C2CC(O)C2)ncn1` (stereo unspecified) | 47.03 |
| `Cc1nc(C)c(C)c(NCC(O)c2ccccn2)n1` (stereo unspecified) | 0.6656 |
| `CCOc1ccc(C2=NNC(=O)CC2)cc1` | -6.437 |
| `Cc1cc(C(=O)NCC2CCCCO2)cc(=O)[nH]1` (stereo unspecified) | -6.242 |
| `CS(=O)(=O)NCC(=O)Nc1ccc(-n2cccn2)cc1` | -13.7 |
| `Cc1nc(O)cc(-c2nc3c([nH]2)CCCNC3=O)n1` | -8.276 |
| `Cc1ncc(CN2CCC(N(C)CCCO)CC2)s1` | 11.61 |
| `NC(=O)CSCCC(=O)NCc1csc(Br)c1` | -2.063 |
| `Cc1ncsc1CNC(=O)N[C@H](CO)c1ccccc1` | -11.67 |
| `COCC(C)C(=O)Nc1ccc2[nH]nnc2c1` (stereo unspecified) | 0.8144 |
| `CNS(=O)(=O)Cc1ccc(CNC(=O)N2CCC2)cc1` | -2.82 |
| `CCC(=O)NCC(=O)N(C)Cc1cccc(OC)c1` | -12.35 |
| `OC1CCNC2(CCC2)C1` (stereo unspecified) | -7.802 |
| `CC(C)CCC(O)CN1CCCN(C(N)=O)CC1` (stereo unspecified) | -1.939 |
| `CCOc1ccc(C(=O)NCCCO)cc1OCC` | 8.69 |
| `Cc1ccc(S(=O)(=O)NCC(=O)NC2CC2)cc1C` | -9.823 |
| `CO[C@H]1CN(C(C)C)C[C@@H]1NC(=O)c1ccoc1` | 1.45 |
| `CC(CN)c1ccccc1` (stereo unspecified) | -2.029 |
| `O=C(c1ccccc1)N1CCN(Cc2ccco2)CC1` | 4.212 |
| `COCC(=O)NCCNS(=O)(=O)Cc1ccccc1` | -10.44 |
| `CC(C)C(C)N(C)c1ccc2nnnn2n1` (stereo unspecified) | 17.09 |
| `OCCCN1CCNCC1` | 27.27 |
| `CCCN1CCC(N2CCC(C(N)=O)CC2)CC1` | -11.79 |
| `CC1CCN(CC(=O)N(C)Cc2ccccn2)CC1` | -3.18 |
| `CC1(C#N)CCCNC1` (stereo unspecified) | -3.446 |
| `CNC(=O)CCN(C)c1cc([C@H]2C[C@H](N)C2)nc(N)n1` | 1.905 |
| `CC(=O)Nc1ccc(-c2nccc(C)n2)cc1` | -5.026 |
| `CC(C)(C)C(=O)N1CCN(CCCO)CC1` | -0.1195 |
| `C[C@@H](N)C(=O)N1Cc2ccccc2C1` | 2.771 |
| `O=C(CNc1ccncc1Cl)NCc1ccco1` | 1.634 |
| `CC(NC(=O)CCNC(=O)c1ccco1)c1cccs1` (stereo unspecified) | 11.03 |
| `CC(=O)Nc1ccccc1CN(C)Cc1nccn1C` | 4.717 |
| `O=C(NCC(O)c1ccsc1)C1=CCCCO1` (stereo unspecified) | -4.679 |
| `Cn1cc(CNC(=O)c2cccc(I)c2)cn1` | -4.461 |
| `CCC(C)(N)c1nc2c(c(=O)[nH]1)CCCC2` (stereo unspecified) | 7.551 |
| `COCC(C)NS(=O)(=O)c1cc(F)cc(F)c1` (stereo unspecified) | -29.07 |
| `NC(=O)COCCNC(=O)CC1CCCCC1` | 1.343 |
| `CC1(C)CC(n2cccn2)C(C)(C)O1` (stereo unspecified) | 95.21 |
| `c1cc(CNc2ncnc3[nH]ncc23)c2c(c1)OCO2` | -4.757 |
| `O=C(Nc1cccc(OCC(F)F)n1)C1CCOC1` (stereo unspecified) | -8.508 |
| `Cc1ccc(OCC(=O)Nn2cnnc2)c(Br)c1` | -2.618 |
| `CCc1nccn1-c1ccc(CNC(C)=O)cc1` | -5.08 |
| `CCSc1ncnc(N)n1` | -2.19 |
| `CC1=C(c2ccco2)CN(CC(N)=O)CC1` | 17.59 |
| `OCCOc1ccc(NCc2sccc2Cl)cn1` | -1.76 |
| `NCC1CCCN(Cc2ccccc2)C1` (stereo unspecified) | 6.565 |
| `O=C1CN(C(=O)COCC2CC2)c2ccccc2N1` | 30.97 |
| `O=C(CCc1ccncc1)N1CCCCC1` | -5.916 |
| `CN1CCN(C(=O)Cn2ccc(N)n2)CC1` | 2.66 |
| `CCC(NC(=O)c1ccc(CO)o1)c1nc(C)c[nH]1` (stereo unspecified) | 8.158 |
| `Cc1c(C(=O)NCC2CC2)cnn1C` | -2.733 |
| `Cn1cnnc1C1CCN(CC2CCOC2)CC1` (stereo unspecified) | 2.981 |
| `O=C(COC(=O)CN1CCCC1=O)NCc1cccs1` | -11.78 |
| `N#Cc1ncc(Cl)cc1Cl` | -4.265 |
| `NC(=O)c1cnc(N)s1` | -2.923 |
| `Cc1cccc(C)c1NC(=O)C1CCS(=O)(=O)C1` (stereo unspecified) | 37.4 |
| `CN(CCC(=O)Nc1ccccc1)CC(=O)N(C)C` | -1.207 |
| `CCNC(=O)N1CCC(NC(=O)c2cc(Cl)c[nH]2)C1` (stereo unspecified) | -0.8014 |
| `Cn1ccnc1CN1CCOCC1(C)C` | 26.11 |
| `COCCc1nc(CCC(F)(F)F)n(CCO)n1` | -7.454 |
| `O=C1NCCCCC1Nc1nccc(C(F)(F)F)n1` (stereo unspecified) | 4.375 |
| `O=C(Cc1ccccc1O)NCCOCC1CCOC1` (stereo unspecified) | 6.638 |
| `CC(CCO)CNS(=O)(=O)c1ccccc1F` (stereo unspecified) | 13.76 |
| `NCc1ccc(CO)cc1` | 0.7244 |
| `CNC(=O)NC1CCNC1` (stereo unspecified) | -9.825 |
| `CNCC(O)c1cccc(Br)c1` (stereo unspecified) | -0.2309 |
| `CCN(CC)Cc1ccc2c(c1)CNCCO2` | 14.04 |
| `Cc1cccnc1N1CCNCC1` | 2.255 |
| `CC(=O)N1CCC(N)c2ccc(F)cc2C1` (stereo unspecified) | 10.3 |
| `CN(CCc1ccncc1)C(=O)Cc1cccnc1` | -9.052 |
| `CCOC(CNC(=O)c1ccnn1C)c1ccccc1` (stereo unspecified) | -0.4622 |
| `CN1CCC(N(C)C(=O)CCN)CC1` | -0.08255 |
| `CCOCC(=O)N1CCCn2ccnc2C1C(C)C` (stereo unspecified) | 44.74 |
| `Cc1cc(C)c(C#N)c(N2C[C@@H]3CCN(C)[C@@H]3C2)n1` | 2.262 |
| `CC(=O)N(C)C1CCN(C(=O)Nc2ccncc2)CC1` | 27.61 |
| `CN(Cc1ccc(Cl)s1)CC1CCS(=O)(=O)C1` (stereo unspecified) | 11.32 |
| `Cc1cc(=O)n(C)cc1NC(=O)CCc1ccccn1` | 3.038 |
| `NCC(=O)N1CCCC(CCc2ccc(F)c(F)c2)C1` (stereo unspecified) | 39.41 |
| `CCN(CC)C(=O)NCC(O)c1ccsc1` (stereo unspecified) | 4.444 |
| `C[S+]([O-])c1nncn1CSCc1ccc(Cl)cc1` (stereo unspecified) | -7.339 |
| `CCC(CC#N)NC(=O)Cc1cccnc1` (stereo unspecified) | 3.915 |
| `CCSCCN1CCC=C(CNC(C)=O)C1` | -4.196 |
| `O=C(Nc1ncccc1O)c1cnns1` | 5.441 |
| `CC(=O)Nc1ccc(CNC(C)C(C)C)cc1` (stereo unspecified) | -1.31 |
| `NC(=O)CN(CCc1ccncc1)C1CCCC1` | 12.36 |
| `CNCCN(C)C(=O)c1ccc(SCCO)cc1` | -6.854 |
| `COCCN(Cc1cccnc1)C(=O)c1csc(C)n1` | 3.745 |